Values from PubChem BioAssay AID1259254 (NCATS, 2017).

Aim: 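Finding genes that stop cells copying their DNA twice in one cycle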 (primary screen)
Cell system: human HCT116 colorectal cancer cells
Knock-down reagent: single siRNA against human genes
Time to read-out: 3 days
Measurement: 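Nuclei stained with Hoechst and imaged; cell-cycle phase assigned by DNA content; G2 share scaled per plate, non-targeting siRNA 0%, GMNN siRNA 100%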
Direction: G2 robust z-score and G2 cells, % of GMNN control: higher = more G2 cells, more excess DNA replication; raw share of cells in G2: higher = larger share of cells with G2 DNA content
Call rule: 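An siRNA counts as active if its G2 robust z-score lies at least 5 MADs above the screen median; here such calls match roughly 38% of GMNN control or more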
Here is a random part of about 59,000 reagents tested. About 1,550 of all reagents (2.6%) count as active. 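G2 share is only a proxy for re-replication; each gene was hit by three separate siRNAs, and active genes were retested.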 Raw values vary from plate to plate and are shown uncorrected. The numbers tell different reagents against one gene apart. Not given: the amount of reagent.

G2 robust z-score | G2 cells, % of GMNN control | raw share of cells in G2 (%) | call | gene knocked down | reagent
-0.661 | -1.68 | 3.52 | inactive | TIMM8A (translocase of inner mitochondrial membrane 8A) | 1
0.869 | 9.08 | 8.2 | inactive | TIMM8A (translocase of inner mitochondrial membrane 8A) | 2
1.56 | 13.9 | 10.1 | inactive | TIMM8A (translocase of inner mitochondrial membrane 8A) | 3
-0.808 | -2.72 | 4.3 | inactive | TLN2 (talin 2) | 1
0.221 | 4.52 | 5.83 | inactive | TLN2 (talin 2) | 2
-0.494 | -0.507 | 4.6 | inactive | TLN2 (talin 2) | 3
0.506 | 6.52 | 6.12 | inactive | RABGEF1 (RAB guanine nucleotide exchange factor 1) | 1
0.265 | 4.83 | 8.35 | inactive | RABGEF1 (RAB guanine nucleotide exchange factor 1) | 2
1.22 | 11.5 | 8.01 | inactive | RABGEF1 (RAB guanine nucleotide exchange factor 1) | 3
-0.0477 | 2.63 | 5.76 | inactive | GALNT12 (polypeptide N-acetylgalactosaminyltransferase 12) | 1
-0.046 | 2.64 | 6.53 | inactive | GALNT12 (polypeptide N-acetylgalactosaminyltransferase 12) | 2
0.0279 | 3.16 | 5.34 | inactive | GALNT12 (polypeptide N-acetylgalactosaminyltransferase 12) | 3
-0.126 | 2.08 | 5.8 | inactive | PRR4 (proline rich 4) | 1
0.726 | 8.07 | 7.47 | inactive | PRR4 (proline rich 4) | 2
0.99 | 9.93 | 6.89 | inactive | PRR4 (proline rich 4) | 3
0.313 | 5.17 | 5.51 | inactive | PBX3 (PBX homeobox 3) | 1
0.0511 | 3.33 | 6.4 | inactive | PBX3 (PBX homeobox 3) | 2
-0.00569 | 2.93 | 4.17 | inactive | PBX3 (PBX homeobox 3) | 3
-0.867 | -3.13 | 2.48 | inactive | ZBTB39 (zinc finger and BTB domain containing 39) | 1
-1.31 | -6.22 | 3.22 | inactive | ZBTB39 (zinc finger and BTB domain containing 39) | 2
-1 | -4.1 | 1.62 | inactive | ZBTB39 (zinc finger and BTB domain containing 39) | 3
-0.583 | -1.14 | 4.77 | inactive | DST (dystonin) | 1
0.0712 | 3.47 | 5.36 | inactive | DST (dystonin) | 2
0.453 | 6.16 | 5.93 | inactive | DST (dystonin) | 3
-0.264 | 1.11 | 4.25 | inactive | SLC7A9 | 1
-0.306 | 0.816 | 6.7 | inactive | SLC7A9 | 2
-1.31 | -6.23 | 2.07 | inactive | SLC7A9 | 3
2.98 | 23.9 | 13.7 | inactive | CFAP36 (cilia and flagella associated protein 36) | 1
-0.259 | 1.15 | 3.67 | inactive | CFAP36 (cilia and flagella associated protein 36) | 2
-0.0614 | 2.54 | 2.56 | inactive | CFAP36 (cilia and flagella associated protein 36) | 3
-0.733 | -2.19 | 4.22 | inactive | RRAD | 1
2.83 | 22.9 | 13.4 | inactive | RRAD | 2
-0.46 | -0.267 | 4.06 | inactive | RRAD | 3
-1.07 | -4.56 | 3.01 | inactive | ZCRB1 (zinc finger CCHC-type and RNA binding motif containing 1) | 1
-0.401 | 0.144 | 4.53 | inactive | ZCRB1 (zinc finger CCHC-type and RNA binding motif containing 1) | 2
-1.77 | -9.46 | 1.28 | inactive | ZCRB1 (zinc finger CCHC-type and RNA binding motif containing 1) | 3
-0.112 | 2.18 | 6.51 | inactive | HOXA6 (homeobox A6) | 1
4.58 | 35.2 | 17.1 | inactive | HOXA6 (homeobox A6) | 2
0.943 | 9.6 | 8.53 | inactive | HOXA6 (homeobox A6) | 3
-0.747 | -2.29 | 3.31 | inactive | DNMT3A (DNA methyltransferase 3 alpha) | 1
1.55 | 13.9 | 9.92 | inactive | DNMT3A (DNA methyltransferase 3 alpha) | 2
2.15 | 18.1 | 11.6 | inactive | DNMT3A (DNA methyltransferase 3 alpha) | 3
0.0308 | 3.18 | 3.77 | inactive | DACT2 (dishevelled binding antagonist of beta catenin 2) | 1
-0.342 | 0.561 | 3.8 | inactive | DACT2 (dishevelled binding antagonist of beta catenin 2) | 2
-0.0868 | 2.36 | 3.75 | inactive | DACT2 (dishevelled binding antagonist of beta catenin 2) | 3

In a second layout: 5 of the entries above.
{"gene knocked down": "TLN2 (talin 2)", "reagent": 1, "G2 robust z-score": -0.808, "G2 cells, % of GMNN control": -2.72, "raw share of cells in G2 (%)": 4.3, "call": "inactive"}
{"gene knocked down": "TLN2 (talin 2)", "reagent": 2, "G2 robust z-score": 0.221, "G2 cells, % of GMNN control": 4.52, "raw share of cells in G2 (%)": 5.83, "call": "inactive"}
{"gene knocked down": "TLN2 (talin 2)", "reagent": 3, "G2 robust z-score": -0.494, "G2 cells, % of GMNN control": -0.507, "raw share of cells in G2 (%)": 4.6, "call": "inactive"}
{"gene knocked down": "RABGEF1 (RAB guanine nucleotide exchange factor 1)", "reagent": 1, "G2 robust z-score": 0.506, "G2 cells, % of GMNN control": 6.52, "raw share of cells in G2 (%)": 6.12, "call": "inactive"}
{"gene knocked down": "RABGEF1 (RAB guanine nucleotide exchange factor 1)", "reagent": 2, "G2 robust z-score": 0.265, "G2 cells, % of GMNN control": 4.83, "raw share of cells in G2 (%)": 8.35, "call": "inactive"}

The list goes on:
G2 robust z-score | G2 cells, % of GMNN control | raw share of cells in G2 (%) | call | gene knocked down | reagent
-0.133 | 2.03 | 4.41 | inactive | LOC644285 | 1
-0.23 | 1.35 | 3.76 | inactive | LOC644285 | 2
-0.962 | -3.8 | 2.04 | inactive | LOC644285 | 3
-0.602 | -1.27 | 3.18 | inactive | WFDC11 (WAP four-disulfide core domain 11) | 1
1.38 | 12.7 | 7.96 | inactive | WFDC11 (WAP four-disulfide core domain 11) | 2
0.668 | 7.67 | 5.6 | inactive | WFDC11 (WAP four-disulfide core domain 11) | 3
1.54 | 13.8 | 7.59 | inactive | VXN (vexin) | 1
0.358 | 5.49 | 5.57 | inactive | VXN (vexin) | 2
-0.225 | 1.38 | 3.6 | inactive | VXN (vexin) | 3
0.271 | 4.88 | 5.12 | inactive | SNU13 (small nuclear ribonucleoprotein 13) | 1
5.97 | 45 | 24.1 | active | SNU13 (small nuclear ribonucleoprotein 13) | 2
0.55 | 6.84 | 6.92 | inactive | SNU13 (small nuclear ribonucleoprotein 13) | 3
-0.274 | 1.04 | 4.57 | inactive | TRABD2A (TraB domain containing 2A) | 1
-0.961 | -3.79 | 1.9 | inactive | TRABD2A (TraB domain containing 2A) | 2
-0.292 | 0.915 | 2.91 | inactive | TRABD2A (TraB domain containing 2A) | 3
0.294 | 5.04 | 4.64 | inactive | HMGN2P20 | 1
-1.02 | -4.2 | 2.19 | inactive | HMGN2P20 | 2
-0.0297 | 2.76 | 4.25 | inactive | HMGN2P20 | 3
0.635 | 7.44 | 6.35 | inactive | SUCLG2P2 (SUCLG2 pseudogene 2) | 1
-0.258 | 1.15 | 3.49 | inactive | SUCLG2P2 (SUCLG2 pseudogene 2) | 2
-0.63 | -1.47 | 2.82 | inactive | SUCLG2P2 (SUCLG2 pseudogene 2) | 3
-0.129 | 2.06 | 4.33 | inactive | CEACAM3 (CEA cell adhesion molecule 3) | 1
0.153 | 4.05 | 7.2 | inactive | CEACAM3 (CEA cell adhesion molecule 3) | 2
0.363 | 5.52 | 6.11 | inactive | CEACAM3 (CEA cell adhesion molecule 3) | 3
0.941 | 9.59 | 9.66 | inactive | OTOF (otoferlin) | 1
1.44 | 13.1 | 9.4 | inactive | OTOF (otoferlin) | 2
-0.121 | 2.12 | 4.18 | inactive | OTOF (otoferlin) | 3
2.58 | 21.1 | 15.7 | inactive | NDUFA12 (NADH:ubiquinone oxidoreductase subunit A12) | 1
0.955 | 9.68 | 7.91 | inactive | NDUFA12 (NADH:ubiquinone oxidoreductase subunit A12) | 2
1.68 | 14.8 | 10.5 | inactive | NDUFA12 (NADH:ubiquinone oxidoreductase subunit A12) | 3
-1.1 | -4.75 | 3.18 | inactive | GPRIN2 (G protein regulated inducer of neurite outgrowth 2) | 1
-0.27 | 1.07 | 4.39 | inactive | GPRIN2 (G protein regulated inducer of neurite outgrowth 2) | 2
2.1 | 17.7 | 9.86 | inactive | GPRIN2 (G protein regulated inducer of neurite outgrowth 2) | 3
1 | 10 | 10.7 | inactive | HEPACAM (hepatic and glial cell adhesion molecule) | 1
0.427 | 5.97 | 6.89 | inactive | HEPACAM (hepatic and glial cell adhesion molecule) | 2
0.989 | 9.93 | 8.87 | inactive | HEPACAM (hepatic and glial cell adhesion molecule) | 3
-1.43 | -7.08 | 3.33 | inactive | FIGN (fidgetin, microtubule severing factor) | 1
2.84 | 22.9 | 12.7 | inactive | FIGN (fidgetin, microtubule severing factor) | 2
-0.253 | 1.19 | 4.83 | inactive | FIGN (fidgetin, microtubule severing factor) | 3
-1.08 | -4.63 | 4.08 | inactive | AMHR2 (anti-Mullerian hormone receptor type 2) | 1
-1.04 | -4.37 | 3.94 | inactive | AMHR2 (anti-Mullerian hormone receptor type 2) | 2
-0.224 | 1.39 | 4.52 | inactive | AMHR2 (anti-Mullerian hormone receptor type 2) | 3
